The inconclusive results got no clear call from the source; some entries with a clear call stand among them for comparison. Where the call is inconclusive, the potency comes from a doubtful curve fit. The source made the active and inactive calls. Rule for the calls: active = hit-call score of the fitted dose curve at least 0.9, where 1 is the maximum; inconclusive = response in the unintended direction; inactive = score below 0.9.
How the values were obtained:
[1] = read-out: Broad substrate specificity ATP-binding cassette transporter ABCG2 (Homo sapiens) (UniProt Q9UNQ0); experiment: CLD_ABCG2_24hr: CellzDirect (CLD) Gene Expression Assay for ABC Transporter (ABCG2) at 24 hours (AID 2283685);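 for AC50: AC50 is for induction meaning signal gain over DMSO vehicle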
How it was run: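 Primary human hepatocytes were dosed daily with ToxCast chemicals at multiple concentrations (vehicle 0.2% DMSO). ABCG2 mRNA was measured at 24 h by qNPA chemiluminescence; induction was scored as gain of signal versus DMSO.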

The chains behind the UniProt entries cited, without tags or fusion partners. Where a name states a change or a piece, a line headed by the entry shows the natural chain unless it says otherwise.
UniProt Q9UNQ0: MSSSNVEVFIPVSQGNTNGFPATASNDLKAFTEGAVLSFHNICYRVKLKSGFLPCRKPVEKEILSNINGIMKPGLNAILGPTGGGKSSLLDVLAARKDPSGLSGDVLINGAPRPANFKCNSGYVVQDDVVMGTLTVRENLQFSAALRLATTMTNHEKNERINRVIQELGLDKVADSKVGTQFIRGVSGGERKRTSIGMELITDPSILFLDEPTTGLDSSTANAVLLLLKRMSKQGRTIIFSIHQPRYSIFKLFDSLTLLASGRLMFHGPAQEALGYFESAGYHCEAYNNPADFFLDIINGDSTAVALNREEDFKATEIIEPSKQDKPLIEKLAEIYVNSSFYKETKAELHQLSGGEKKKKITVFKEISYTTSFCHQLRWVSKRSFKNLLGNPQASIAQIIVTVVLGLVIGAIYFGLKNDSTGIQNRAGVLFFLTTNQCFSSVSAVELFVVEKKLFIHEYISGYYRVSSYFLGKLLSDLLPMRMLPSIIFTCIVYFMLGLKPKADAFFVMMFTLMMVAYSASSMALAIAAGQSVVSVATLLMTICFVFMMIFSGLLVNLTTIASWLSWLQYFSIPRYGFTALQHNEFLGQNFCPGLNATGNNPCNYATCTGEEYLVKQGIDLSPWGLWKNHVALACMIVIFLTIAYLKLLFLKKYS
UniProt P33261, whole entry, looked up: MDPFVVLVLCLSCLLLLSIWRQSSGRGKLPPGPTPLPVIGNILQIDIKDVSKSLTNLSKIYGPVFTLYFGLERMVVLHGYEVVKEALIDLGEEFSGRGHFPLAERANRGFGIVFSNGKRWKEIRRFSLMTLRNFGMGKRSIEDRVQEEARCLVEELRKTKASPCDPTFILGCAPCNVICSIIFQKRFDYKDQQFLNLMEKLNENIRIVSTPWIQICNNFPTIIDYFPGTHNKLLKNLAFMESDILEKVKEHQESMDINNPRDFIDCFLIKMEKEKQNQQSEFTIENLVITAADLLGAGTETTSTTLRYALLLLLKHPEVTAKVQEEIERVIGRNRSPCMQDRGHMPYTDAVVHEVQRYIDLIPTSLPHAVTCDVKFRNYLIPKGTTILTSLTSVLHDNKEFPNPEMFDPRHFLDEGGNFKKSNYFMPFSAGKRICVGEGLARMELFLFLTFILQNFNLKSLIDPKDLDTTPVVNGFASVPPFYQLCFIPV
UniProt P11712, whole entry, looked up: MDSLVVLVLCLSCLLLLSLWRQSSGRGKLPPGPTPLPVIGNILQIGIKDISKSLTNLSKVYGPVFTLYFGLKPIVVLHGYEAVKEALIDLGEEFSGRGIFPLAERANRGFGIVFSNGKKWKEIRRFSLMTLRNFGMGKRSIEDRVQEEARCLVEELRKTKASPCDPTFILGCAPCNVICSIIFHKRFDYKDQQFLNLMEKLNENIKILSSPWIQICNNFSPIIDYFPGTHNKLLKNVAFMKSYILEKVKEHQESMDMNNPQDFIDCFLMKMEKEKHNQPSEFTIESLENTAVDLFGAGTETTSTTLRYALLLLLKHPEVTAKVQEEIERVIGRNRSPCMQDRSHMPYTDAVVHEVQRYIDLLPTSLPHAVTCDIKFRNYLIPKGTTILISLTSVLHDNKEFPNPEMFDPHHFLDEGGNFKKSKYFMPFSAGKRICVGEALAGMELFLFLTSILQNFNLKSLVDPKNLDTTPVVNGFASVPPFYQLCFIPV
UniProt P20813: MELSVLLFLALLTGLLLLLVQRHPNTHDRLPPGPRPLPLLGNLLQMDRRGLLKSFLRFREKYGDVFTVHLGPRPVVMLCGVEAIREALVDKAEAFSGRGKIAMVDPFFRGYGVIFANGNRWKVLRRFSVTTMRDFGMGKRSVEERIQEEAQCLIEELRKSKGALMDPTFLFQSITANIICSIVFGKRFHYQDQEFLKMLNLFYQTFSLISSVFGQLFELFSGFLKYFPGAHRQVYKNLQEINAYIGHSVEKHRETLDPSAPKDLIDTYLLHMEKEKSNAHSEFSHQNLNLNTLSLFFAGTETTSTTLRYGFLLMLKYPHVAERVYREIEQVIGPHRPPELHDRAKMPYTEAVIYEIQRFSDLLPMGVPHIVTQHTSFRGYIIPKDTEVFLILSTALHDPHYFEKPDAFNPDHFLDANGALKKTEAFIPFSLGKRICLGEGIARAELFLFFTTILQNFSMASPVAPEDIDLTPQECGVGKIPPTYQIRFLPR
UniProt P08684, whole entry, looked up: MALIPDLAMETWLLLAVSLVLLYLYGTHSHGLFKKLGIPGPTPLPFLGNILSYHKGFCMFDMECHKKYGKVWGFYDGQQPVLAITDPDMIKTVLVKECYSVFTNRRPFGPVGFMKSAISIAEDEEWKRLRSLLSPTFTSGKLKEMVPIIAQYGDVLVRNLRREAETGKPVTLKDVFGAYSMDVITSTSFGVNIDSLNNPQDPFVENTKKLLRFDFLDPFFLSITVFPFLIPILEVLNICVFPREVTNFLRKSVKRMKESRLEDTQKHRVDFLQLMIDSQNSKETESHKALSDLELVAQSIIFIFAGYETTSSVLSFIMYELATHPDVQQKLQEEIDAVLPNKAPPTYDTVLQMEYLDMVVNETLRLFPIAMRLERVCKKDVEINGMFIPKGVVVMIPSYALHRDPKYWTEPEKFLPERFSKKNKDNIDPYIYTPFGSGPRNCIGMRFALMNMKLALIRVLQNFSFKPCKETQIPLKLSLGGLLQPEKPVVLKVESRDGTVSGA

[2] = read-out: organic anion transporter (SLCO1B1), SLCO1B1 (gene 10599); experiment: CLD_SLCO1B1_24hr: CellzDirect (CLD) Gene Expression Assay for organic anion transporter (SLCO1B1) at 24 hours (AID 2283690)
How it was run: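 Primary human hepatocytes (two donor preparations) dosed daily for two days with chemicals at multiple concentrations, 0.2% DMSO vehicle. SLCO1B1 mRNA at 24 h measured by qNPA chemiluminescence; induction fitted relative to DMSO.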

[3] = read-out: alkyl and aryl transferase (GSTA2), GSTA2 (gene 2939); experiment: CLD_GSTA2_24hr: CellzDirect (CLD) Gene Expression Assay for alkyl and aryl transferase (GSTA2) at 24 hours (AID 2283693)
How it was run: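 Primary human hepatocytes (two donor preparations) dosed daily for two days with chemicals at multiple concentrations (vehicle 0.2% DMSO); GSTA2 mRNA at 24 h measured by qNPA chemiluminescence, gain-of-signal versus DMSO.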

[4] = read-out: sulfotransferase (SULT2A), SULT2A1 (gene 6822); experiment: CLD_SULT2A_24hr: CellzDirect (CLD) Gene Expression Assay for sulfotransferase (SULT2A) at 24 hours (AID 2283694);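 for AC50: potency for increased SULT2A1 mRNA level as induction over DMSO baseline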
How it was run: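 Primary human hepatocytes from two donor preparations were dosed daily with fresh solutions, vehicle 0.2% DMSO. At 24 h, lysates went to quantitative nuclease protection (qNPA) with S1 digestion and chemiluminescent readout. Cytotoxicity was annotated from phase-contrast morphology.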

[5] = read-out: ABC Transporter (ABCB1), ABCB1 (gene 5243); experiment: CLD_ABCB1_48hr: CellzDirect (CLD) Gene Expression Assay for ABC Transporter (ABCB1) at 48 hours (AID 2283695);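 for AC50: potency for induction meaning increase of mRNA over DMSO vehicle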
Description: CLD_48hr is a cell-based, multiplexed-readout assay that uses hepatocyte, a human liver primary cell, with measurements taken at 48 hours after chemical dosing in a 96-well plate.CLD_ABCB1_48hr is one of 16 assay component(s) measured or calculated from the CLD_48hr assay. It is designed to make measurements of mRNA induction, a form of inducible reporter, as detected with chemiluminescence signals by Quantitative Nuclease Protection Assay (qNPA) technology.Data from the assay component CLD_ABCB1_48hr was analyzed at the endpoint, CLD_ABCB1_48hr, in the positive analysis fitting direction relative to DMSO as the negative control and baseline of activity. Using a type of inducible reporter, gain-of-signal activity can be used to understand changes in the reporter gene as they relate to the gene ABCB1. Furthermore, this assay endpoint can be referred to as a primary readout. To generalize the intended target to other relatable targets, this assay endpoint is annotated to the transporter intended target family, where subfamily is ABC transporter.
Human hepatocyte cultures were treated daily for two consecutive days with fresh dosing solutions containing appropriate concentrations of the 320 ToxCast chemicals (chemical identities were blinded to CellzDirect and other ToxCast collaborators), vehicle control (0.2% DMSO), and positive control inducers as summarized in Table 1. Due to the large number of treatment groups and chemicals examined, the ToxCast chemicals were divided into two groups (spanning two independent cultures of hepatocytes from separate donor preparations (Hu778: ToxCast plates 1 and 2; Hu776: ToxCast plates 3 and 4). Each preparation of human hepatocyte cultures was treated with respective vehicle control, medium only control, set of six positive controls/reference chemicals for the five hepatic receptor pathways, and a subset of eight of the ToxCast chemicals (indoxacarb, pyrithiobac-sodium, norflurazon, cyhalofop-butyl, methomyl, thiram, acetochlor, and propiconazole). These replicate data, coupled with internal replicates designed within the blinded ToxCast chemical library, provided additional data to evaluate interindividual differences between hepatocyte preparations and their potential impact on chemical profiles.Cell morphology and integrity were evaluated using phase-contrast microscopy as an indicator of hepatocyte cell health (Tyson & Green, 1987). Cultures for each treatment group (i.e., media, vehicle [0.2% DMSO], positive control inducers [multiple concentrations], and the ToxCast chemicals [multiple concentrations]) were observed and cell morphology was assessed relative to vehicle control cultures at each harvest time point (0, 6, 24, or 48 h). […] Images were evaluated at the conclusion of the study to assess changes in cell integrity and account for the effects of chemical exposure on uncharacteristic changes in concentration-dependent gene expression profiles. The results from these determinations of apparent cytotoxicity were annotated (yes/no) alongside the corresponding qNPA data for reference.At the conclusion of each treatment period, hepatocyte cultures (96-well) were washed with 1 volume of HBSS, lysed by addition of 25 ul ArrayPlate lysis buffer (HTG, Tucson, AZ), and 70 ul/well of Denaturation Oil, denatured by incubation at 95C for 10 min, and frozen at approximately -70C until analysis by nuclease protection assay (qNPA) (Roberts et al., 2007). For qNPA analysis, cell lysates were thawed at 50C for approximately 30 min, qNPA probes were added, and samples were incubated at 95C for 10 min to begin the detection process by denaturing the target RNA, dissociating the duplexes and secondary structure hybridization. At the conclusion of the hybridization period, S1 nuclease reagent was added to each sample to digest all nonprotected nucleotides at 50C for 60-90 min. […]

[6] = read-out: Cytochrome P450 2C19 (Homo sapiens) (UniProt P33261); experiment: CLD_CYP2C19_24hr: CellzDirect (CLD) Gene Expression Assay for xenobiotic metabolism (CYP2C19) at 24 hours (AID 2283687);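 for outcome: activity means mRNA induction above DMSO vehicle baseline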
How it was run: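 Primary human hepatocytes (two donor preparations) dosed daily with fresh test chemical in 0.2% DMSO vehicle; CYP2C19 mRNA induction measured at 24 h by quantitative nuclease protection assay with chemiluminescence, fitted for gain of signal versus DMSO.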

[7] = read-out: Cytochrome P450 2C9 (Homo sapiens) (UniProt P11712); experiment: CLD_CYP2C9_24hr: CellzDirect (CLD) Gene Expression Assay for xenobiotic metabolism (CYP2C9) at 24 hours (AID 2283688);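 for AC50: potency for induction meaning a rise in CYP2C9 mRNA over DMSO vehicle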
How it was run: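 Primary human hepatocytes from two donor preparations, dosed daily for two days at multiple concentrations; vehicle 0.2% DMSO. CYP2C9 mRNA induction at 24 h measured by qNPA chemiluminescence relative to DMSO; cytotoxicity annotated from morphology.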

[8] = read-out: Cytochrome P450 2B6 (Homo sapiens) (UniProt P20813); experiment: CLD_CYP2B6_24hr: CellzDirect (CLD) Gene Expression Assay for xenobiotic metabolism (CYP2B6) at 24 hours (AID 2283686)
How it was run: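 Primary human hepatocytes dosed daily for two days with fresh solutions, harvested at 24 hours; mRNA induction quantified by qNPA chemiluminescence, gain of signal vs 0.2% DMSO vehicle. Cytotoxicity annotated from phase-contrast morphology.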

[9] = read-out: Cytochrome P450 3A4 (Homo sapiens) (UniProt P08684); experiment: CLD_CYP3A4_24hr: CellzDirect (CLD) Gene Expression Assay for xenobiotic metabolism (CYP3A4) at 24 hours (AID 2283689)
How it was run: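 Primary human hepatocytes from two donors dosed daily with fresh compound for two days, 0.2% DMSO vehicle. CYP3A4 mRNA at 24 hr by qNPA chemiluminescence; gain-of-signal fit versus DMSO, cytotoxicity flagged by morphology.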

[10] = read-out: ABC Transporter (ABCB1), ABCB1 (gene 5243); experiment: CLD_ABCB1_24hr: CellzDirect (CLD) Gene Expression Assay for ABC Transporter (ABCB1) at 24 hours (AID 2283684);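 note: potency for increase in ABCB1 mRNA relative to DMSO vehicle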
How it was run: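 Primary human hepatocytes, two donor preparations, dosed daily with fresh solutions; vehicle 0.2% DMSO; harvested at 24 h. ABCB1 mRNA measured by quantitative nuclease protection assay (chemiluminescence); morphology-based cytotoxicity annotated.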

CCN(CC)C(=O)c1cccc(C)c1
AC50 [1]: inconclusive: 0.00143 µM | AC50 [2]: inconclusive: 20 µM | AC50 [3]: inconclusive: 0.186 µM | AC50 [4]: inconclusive: 0.0004 µM | outcome [5]: inactive

COC(=O)CSc1cc(N=c2sc(=O)n3n2CCCC3)c(F)cc1Cl
outcome [6]: inactive | AC50 [7]: inconclusive: 0.000635 µM | AC50 [2]: inconclusive: 2.78 µM | AC50 [3]: inconclusive: 0.774 µM

OB(O)O
AC50 [8]: inconclusive: 20 µM | AC50 [6]: inconclusive: 20 µM | AC50 [7]: inconclusive: 0.249 µM | AC50 [2]: inconclusive: 20 µM | AC50 [3]: inconclusive: 0.00705 µM

CCNc1nc(N)nc(Cl)n1
AC50 [1]: inconclusive: 20 µM | AC50 [6]: inconclusive: 20 µM | AC50 [9]: inconclusive: 20 µM | outcome [2]: inactive | AC50 [4]: inconclusive: 0.0162 µM

COC(=O)c1ccccc1S(=O)(=O)NC(=O)Nc1nc(OC(F)F)cc(OC(F)F)n1
AC50 [1]: inconclusive: 0.102 µM | AC50 [7]: inconclusive: 0.0662 µM | AC50 [9]: inconclusive: 0.0004 µM | AC50 [2]: inconclusive: 0.0567 µM | AC50 [5]: inconclusive: 20 µM

C#CCOC(=O)[C@@H](C)Oc1ccc(Oc2ncc(Cl)cc2F)cc1
AC50 [7]: inconclusive: 0.0004 µM | AC50 [3]: inconclusive: 20 µM | outcome [4]: inactive

CCC(C)OC(=O)N1CCCCC1CCO (stereo not given)
AC50 [7]: inconclusive: 1.9 µM | AC50 [9]: inconclusive: 0.000112 µM | outcome [2]: inactive

O=C(Nc1ccc([N+](=O)[O-])cc1Cl)c1cc(Cl)ccc1O
outcome [1]: inactive | outcome [8]: inactive | AC50 [6]: inconclusive: 20 µM | outcome [7]: inactive | outcome [3]: inactive

CCN(Cc1c(F)cccc1Cl)c1c([N+](=O)[O-])cc(C(F)(F)F)cc1[N+](=O)[O-]
AC50 [10]: inconclusive: 2.17 µM | AC50 [1]: inconclusive: 2.57 µM | AC50 [6]: inconclusive: 2.96 µM | AC50 [7]: inconclusive: 2.69 µM | AC50 [2]: inconclusive: 3.72 µM | AC50 [3]: inconclusive: 2.55 µM | AC50 [4]: inconclusive: 3.97 µM | AC50 [5]: inconclusive: 1.9 µM

CCOC(=O)C(C)Oc1ccc(Oc2nc3ccc(Cl)cc3o2)cc1 (stereo not given)
outcome [1]: inactive | AC50 [8]: inconclusive: 20 µM | AC50 [7]: inconclusive: 9.89 µM | outcome [9]: inactive | outcome [2]: inactive

COC(=O)c1ccc(CNS(C)(=O)=O)cc1S(=O)(=O)NC(=O)Nc1nc(OC)cc(OC)n1
AC50 [1]: inconclusive: 20 µM | outcome [6]: inactive | AC50 [7]: inconclusive: 20 µM | AC50 [2]: inconclusive: 20 µM | outcome [3]: inactive | AC50 [4]: inconclusive: 0.0004 µM | outcome [5]: inactive

CCSC(=O)N(CC(C)C)CC(C)C
outcome [6]: inactive | AC50 [7]: inconclusive: 0.00873 µM | AC50 [9]: inconclusive: 0.00182 µM | outcome [2]: inactive | AC50 [4]: inconclusive: 0.011 µM

COC(=O)c1c(Cl)nn(C)c1S(=O)(=O)NC(=O)Nc1nc(OC)cc(OC)n1
AC50 [1]: inconclusive: 1.9 µM | AC50 [6]: inconclusive: 20 µM | AC50 [7]: inconclusive: 1.89 µM | AC50 [2]: inconclusive: 1.9 µM | outcome [3]: inactive | outcome [4]: inactive | outcome [5]: inactive

CCCCC(CC)CN1C(=O)C2C3C=CC(C3)C2C1=O (stereo not given)
AC50 [1]: inconclusive: 20 µM | AC50 [6]: inconclusive: 20 µM | AC50 [7]: inconclusive: 0.00609 µM | AC50 [2]: inconclusive: 20 µM | outcome [5]: inactive

COC(=O)c1ccc(I)cc1S(=O)(=O)NC(=O)Nc1nc(C)nc(OC)n1
AC50 [10]: active: 20 µM | AC50 [7]: inconclusive: 20 µM | AC50 [9]: inconclusive: 20 µM | AC50 [3]: inconclusive: 6.84 µM | AC50 [4]: inconclusive: 9.84 µM

C=CCOC(Cn1ccnc1)c1ccc(Cl)cc1Cl (stereo not given)
AC50 [6]: inconclusive: 9.21 µM | AC50 [7]: inconclusive: 20 µM | AC50 [5]: active: 36.9 µM

CCCN(CCC)C(=O)SCC
AC50 [10]: inconclusive: 20 µM | AC50 [1]: inconclusive: 20 µM | outcome [7]: inactive | AC50 [3]: inconclusive: 20 µM | AC50 [4]: inconclusive: 20 µM

Reference: PubChem BioAssay (EPA / NIEHS)
